These are yes or no findings as the source states them, for the method shown. Binding seen in cells or lysates may run through a third protein. A yes stands for co-enrichment or nearness to the bait. Other partners may have been found. Sequences can lack the tags named with a protein.
T1: DDIT4–APEX2 fusion protein (rigid linker) (human) (UniProt Q9NX09)
T1 sequence: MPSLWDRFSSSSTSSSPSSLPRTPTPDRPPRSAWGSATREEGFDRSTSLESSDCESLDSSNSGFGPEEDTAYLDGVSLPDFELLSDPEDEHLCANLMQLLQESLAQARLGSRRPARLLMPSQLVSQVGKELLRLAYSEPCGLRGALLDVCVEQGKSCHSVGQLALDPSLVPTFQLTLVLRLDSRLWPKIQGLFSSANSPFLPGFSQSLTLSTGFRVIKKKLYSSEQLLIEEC


target: T1, DDIT4–APEX2 fusion protein (rigid linker) (human); test: proximity labelling; DDIT4–APEX2 (rigid linker) expressed in SK-N-SH cells; 1 mM biotin tyramide 45 min at 37 °C with or without 330 μM NaAsO2, 1 mM H2O2 for 1.5 min; biotinylated proteins captured on streptavidin magnetic particles and identified by LC-MS/MS; proteins labelled by APEX2 alone filtered out

binding | Binder
binds | HTR3C (protein, UniProt Q8WXA8 28-447) FTINCSGFDQHGVDPAVFQAVFDRKAFRPFTNYSIPTRVNISFTLSAILGVDAQLQLLTSFLWMDLVWDNPFINWNPKECVGINKLTVLAENLWLPDIFIVESMDVDQTPSGLTAYISSEGRIKYDKPMRVTSICNLDIFYFPFDQQNCTFTFSSFLYTVDSMLLGMDKEVWEITDTSRKVIQTQGEWELLGINKATPKMSMGNNLYDQIMFYVAIRRRPSLYIINLLVPSSFLVAIDALSFYLPAESENRAPFKITLLLGYNVFLLMMNDLLPASGTPLISVYFALCLSLMVVSLLETVFITYLLHVATTQPPPMPRWLHSLLLHCTSPGRCCPTAPQKGNKGLGLTLTHLPGPKEPGELAGKKLGPRETEPDGGSGWTKTQLMELWVQFSHAMDTLLFRLYLLFMASSILTVIVLWNT
binds | TEX14 (protein, UniProt Q8IWB6 1-1497) MSRAVRLPVPCPVQLGTLRNDSLEAQLHEYVKQGNYVKVKKILKKGIYVDAVNSLGQTALFVAALLGLRKFVDVLVDYGSDPNHRCFDGSTPVHAAAFSGNQWILSKLLDAGGDLRLHDERGQNPKTWALTAGKERSTQIVEFMQRCASHMQAIIQGFSYDLLKKIDSPQRLVYSPSWCGGLVQGNPNGSPNRLLKAGVISAQNIYSFGFGKAMPWFQFYLTGATQMAYLGSLPVIGEKEVIQADDEPTFSFFSGPYMVMTNLVWNGSRVTVKELNLPTHPHCSRLRLADLLIAEQEHSSKLRHPYLLQLMAVCLSQDLEKTRLVYERITIGTLFSVLHERRSQFPVLHMEVIVHLLLQISDALRYLHFQGFIHRSLSSYAVHIISPGEARLTNLEYMLESEDRGVQRDLTRVPLPTQLYNWAAPEVILQKAATVKSDIYSFSMIMQEILTDDIPWKGLDGSVVKKAVVSGNYLEADVRLPKPYYDIVKSGIHVKQKDRTMNLQDIRYILKNDLKDFTGAQRTQPTESPRVQRYGLHPDVNVYLGLTSEHPRETPDMEIIELKEMGSQPHSPRVHSLFTEGTLDPQAPDPCLMARETQNQDAPCPAPFMAEEASSPSTGQPSLCSFEINEIYSGCLILEDDIEEPPGAASSLEADGPNQVDELKSMEEELDKMEREACCFGSEDESSSKAETEYSFDDWDWQNGSLSSLSLPESTREAKSNLNNMSTTEEYLISKCVLDLKIMQTIMHENDDRLRNIEQILDEVEMKQKEQEERMSLWATSREFTNAYKLPLAVGPPSLNYIPPVLQLSGGQKPDTSGNYPTLPRFPRMLPTLCDPGKQNTDEQFQCTQGAKDSLETSRIQNTSSQGRPRESTAQAKATQFNSALFTLSSHRQGPSASPSCHWDSTRMSVEPVSSEIYNAESRNKDDGKVHLKWKMEVKEMAKKAATGQLTVPPWHPQSSLTLESEAENEPDALLQPPIRSPENTDWQRVIEYHRENDEPRGNGKFDKTGNNDCDSDQHGRQPRLGSFTSIRHPSPRQKEQPEHSEAFQASSDTLVAVEKSYSHQSMQSTCSPESSEDITDEFLTPDGEYFYSSTAQENLALETSSPIEEDFEGIQGAFAQPQVSGEEKFQMRKILGKNAEILPRSQFQPVRSTEDEQEETSKESPKELKEKDISLTDIQDLSSISYEPDSSFKEASCKTPKINHAPTSVSTPLSPGSVSSAASQYKDCLESITFQVKTEFASCWNSQEFIQTLSDDFISVRERAKKLDSLLTSSETPPSRLTGLKRLSSFIGAGSPSLVKACDSSPPHATQRRSLPKVEAFSQHHIDELPPPSQELLDDIELLKQQQGSSTVLHENTASDGGGTANDQRHLEEQETDSKKEDSSMLLSKETEDLGEDTERAHSTLDEDLERWLQPPEESVELQDLPKGSERETNIKDQKVGEEKRKREDSITPERRKSEGVLGTSEEDELKSCFWKRLGWSESSRIIVLDQSDLSD

The remaining lines, values behind:

Binder | binding
DNA2 (protein, UniProt P51530 1-1060) MEQLNELELLMEKSFWEEAELPAELFQKKVVASFPRTVLSTGMDNRYLVLAVNTVQNKEGNCEKRLVITASQSLENKELCILRNDWCSVPVEPGDIIHLEGDCTSDTWIIDKDFGYLILYPDMLISGTSIASSIRCMRRAVLSETFRSSDPATRQMLIGTVLHEVFQKAINNSFAPEKLQELAFQTIQEIRHLKEMYRLNLSQDEIKQEVEDYLPSFCKWAGDFMHKNTSTDFPQMQLSLPSDNSKDNSTCNIEVVKPMDIEESIWSPRFGLKGKIDVTVGVKIHRGYKTKYKIMPLELKTGKESNSIEHRSQVVLYTLLSQERRADPEAGLLLYLKTGQMYPVPANHLDKRELLKLRNQMAFSLFHRISKSATRQKTQLASLPQIIEEEKTCKYCSQIGNCALYSRAVEQQMDCSSVPIVMLPKIEEETQHLKQTHLEYFSLWCLMLTLESQSKDNKKNHQNIWLMPASEMEKSGSCIGNLIRMEHVKIVCDGQYLHNFQCKHGAIPVTNLMAGDRVIVSGEERSLFALSRGYVKEINMTTVTCLLDRNLSVLPESTLFRLDQEEKNCDIDTPLGNLSKLMENTFVSKKLRDLIIDFREPQFISYLSSVLPHDAKDTVACILKGLNKPQRQAMKKVLLSKDYTLIVGMPGTGKTTTICTLVRILYACGFSVLLTSYTHSAVDNILLKLAKFKIGFLRLGQIQKVHPAIQQFTEQEICRSKSIKSLALLEELYNSQLIVATTCMGINHPIFSRKIFDFCIVDEASQISQPICLGPLFFSRRFVLVGDHQQLPPLVLNREARALGMSESLFKRLEQNKSAVVQLTVQYRMNSKIMSLSNKLTYEGKLECGSDKVANAVINLRHFKDVKLELEFYADYSDNPWLMGVFEPNNPVCFLNTDKVPAPEQVEKGGVSNVTEAKLIVFLTSIFVKAGCSPSDIGIIAPYRQQLKIINDLLARSIGMVEVNTVDKYQGRDKSIVLVSFVRSNKDGTVGELLKDWRRLNVAITRAKHKLILLGCVPSLNCYPPLEKLLNHLNSEKLIIDLPSREHESLCHILGDFQRE | binds
ADAR (protein, UniProt P55265 1-1226) MNPRQGYSLSGYYTHPFQGYEHRQLRYQQPGPGSSPSSFLLKQIEFLKGQLPEAPVIGKQTPSLPPSLPGLRPRFPVLLASSTRGRQVDIRGVPRGVHLRSQGLQRGFQHPSPRGRSLPQRGVDCLSSHFQELSIYQDQEQRILKFLEELGEGKATTAHDLSGKLGTPKKEINRVLYSLAKKGKLQKEAGTPPLWKIAVSTQAWNQHSGVVRPDGHSQGAPNSDPSLEPEDRNSTSVSEDLLEPFIAVSAQAWNQHSGVVRPDSHSQGSPNSDPGLEPEDSNSTSALEDPLEFLDMAEIKEKICDYLFNVSDSSALNLAKNIGLTKARDINAVLIDMERQGDVYRQGTTPPIWHLTDKKRERMQIKRNTNSVPETAPAAIPETKRNAEFLTCNIPTSNASNNMVTTEKVENGQEPVIKLENRQEARPEPARLKPPVHYNGPSKAGYVDFENGQWATDDIPDDLNSIRAAPGEFRAIMEMPSFYSHGLPRCSPYKKLTECQLKNPISGLLEYAQFASQTCEFNMIEQSGPPHEPRFKFQVVINGREFPPAEAGSKKVAKQDAAMKAMTILLEEAKAKDSGKSEESSHYSTEKESEKTAESQTPTPSATSFFSGKSPVTTLLECMHKLGNSCEFRLLSKEGPAHEPKFQYCVAVGAQTFPSVSAPSKKVAKQMAAEEAMKALHGEATNSMASDNQPEGMISESLDNLESMMPNKVRKIGELVRYLNTNPVGGLLEYARSHGFAAEFKLVDQSGPPHEPKFVYQAKVGGRWFPAVCAHSKKQGKQEAADAALRVLIGENEKAERMGFTEVTPVTGASLRRTMLLLSRSPEAQPKTLPLTGSTFHDQIAMLSHRCFNTLTNSFQPSLLGRKILAAIIMKKDSEDMGVVVSLGTGNRCVKGDSLSLKGETVNDCHAEIISRRGFIRFLYSELMKYNSQTAKDSIFEPAKGGEKLQIKKTVSFHLYISTAPCGDGALFDKSCSDRAMESTESRHYPVFENPKQGKLRTKVENGEGTIPVESSDIVPTWDGIRLGERLRTMSCSDKILRWNVLGLQGALLTHFLQPIYLKSVTLGYLFSQGHLTRAICCRVTRDGSAFEDGLRHPFIVNHPKVGRVSIYDSKRQSGKTKETSVNWCLADGYDLEILDGTRGTVDGPRNELSRVSKKNIFLLFKKLCSFRYRRDLLRLSYGEAKKAARDYETAKNYFKKGLKDMGYGNWISKPQEEKNFYLCPV | binds
ERCC6L (protein, UniProt Q2NKX8 1-1250) MEASRRFPEAEALSPEQAAHYLRYVKEAKEATKNGDLEEAFKLFNLAKDIFPNEKVLSRIQKIQEALEELAEQGDDEFTDVCNSGLLLYRELHNQLFEHQKEGIAFLYSLYRDGRKGGILADDMGLGKTVQIIAFLSGMFDASLVNHVLLIMPTNLINTWVKEFIKWTPGMRVKTFHGPSKDERTRNLNRIQQRNGVIITTYQMLINNWQQLSSFRGQEFVWDYVILDEAHKIKTSSTKSAICARAIPASNRLLLTGTPIQNNLQELWSLFDFACQGSLLGTLKTFKMEYENPITRAREKDATPGEKALGFKISENLMAIIKPYFLRRTKEDVQKKKSSNPEARLNEKNPDVDAICEMPSLSRKNDLIIWIRLVPLQEEIYRKFVSLDHIKELLMETRSPLAELGVLKKLCDHPRLLSARACCLLNLGTFSAQDGNEGEDSPDVDHIDQVTDDTLMEESGKMIFLMDLLKRLRDEGHQTLVFSQSRQILNIIERLLKNRHFKTLRIDGTVTHLLEREKRINLFQQNKDYSVFLLTTQVGGVGLTLTAATRVVIFDPSWNPATDAQAVDRVYRIGQKENVVVYRLITCGTVEEKIYRRQVFKDSLIRQTTGEKKNPFRYFSKQELRELFTIEDLQNSVTQLQLQSLHAAQRKSDIKLDEHIAYLQSLGIAGISDHDLMYTCDLSVKEELDVVEESHYIQQRVQKAQFLVEFESQNKEFLMEQQRTRNEGAWLREPVFPSSTKKKCPKLNKPQPQPSPLLSTHHTQEEDISSKMASVVIDDLPKEGEKQDLSSIKVNVTTLQDGKGTGSADSIATLPKGFGSVEELCTNSSLGMEKSFATKNEAVQKETLQEGPKQEALQEDPLESFNYVLSKSTKADIGPNLDQLKDDEILRHCNPWPIISITNESQNAESNVSIIEIADDLSASHSALQDAQASEAKLEEEPSASSPQYACDFNLFLEDSADNRQNFSSQSLEHVEKENSLCGSAPNSRAGFVHSKTCLSWEFSEKDDEPEEVVVKAKIRSKARRIVSDGEDEDDSFKDTSSINPFNTSLFQFSSVKQFDASTPKNDISPPGRFFSSQIPSSVNKSMNSRRSLASRRSLINMVLDHVEDMEERLDDSSEAKGPEDYPEEGVEESSGEASKYTEEDPSGETLSSENKSSWLMTSKPSALAQETSLGAPEPLSGEQLVGSPQDKAAEATNDYETLVKRGKELKECGKIQEALNCLVKALDIKSADPEVMLLTLSLYKQLNNN | binds
